Experimental data from US9115169B2 (Lytix Biopharma AS, priority 2000, dated 2015).

Test: general procedure: Fmoc solid-phase peptide synthesis; PAC-PEG-PS; Pfp esters with HOBt, or HATU/DIPEA; HBTU/HOBt/DIPEA in solution
Conditions: whole synthesis, analytical RP-HPLC C18

For RWrw-OBzl, the “final HPLC purity” value was 98%.
